Experiment [1] addresses Myc-tagged BPLF1 325 (first 325 amino acids of EBV large tegument protein BPLF1) (Epstein-Barr virus) (UniProt P03186). Put plainly: co-IP; reciprocal: Myc-BPLF1 and Flag-STING co-expressed in HEK293T cells; Myc-tagged BPLF1 precipitated, blot with anti-Flag; RIPA buffer.
A further experiment deals with Flag-tagged STING (UniProt Q86WV6). The experiment in a line: co-IP; Myc-BPLF1 co-expressed with Flag-STING or Flag-TBK1 in HEK293T cells, harvested 24 h after transfection; lysis and washes in RIPA buffer; Flag-tagged protein precipitated with anti-Flag antibody on Dynabeads, blot with anti-Myc.
The next experiment concerns the target T1, Flag-tagged TBK1 (UniProt Q9UHD2).
T1 sequence: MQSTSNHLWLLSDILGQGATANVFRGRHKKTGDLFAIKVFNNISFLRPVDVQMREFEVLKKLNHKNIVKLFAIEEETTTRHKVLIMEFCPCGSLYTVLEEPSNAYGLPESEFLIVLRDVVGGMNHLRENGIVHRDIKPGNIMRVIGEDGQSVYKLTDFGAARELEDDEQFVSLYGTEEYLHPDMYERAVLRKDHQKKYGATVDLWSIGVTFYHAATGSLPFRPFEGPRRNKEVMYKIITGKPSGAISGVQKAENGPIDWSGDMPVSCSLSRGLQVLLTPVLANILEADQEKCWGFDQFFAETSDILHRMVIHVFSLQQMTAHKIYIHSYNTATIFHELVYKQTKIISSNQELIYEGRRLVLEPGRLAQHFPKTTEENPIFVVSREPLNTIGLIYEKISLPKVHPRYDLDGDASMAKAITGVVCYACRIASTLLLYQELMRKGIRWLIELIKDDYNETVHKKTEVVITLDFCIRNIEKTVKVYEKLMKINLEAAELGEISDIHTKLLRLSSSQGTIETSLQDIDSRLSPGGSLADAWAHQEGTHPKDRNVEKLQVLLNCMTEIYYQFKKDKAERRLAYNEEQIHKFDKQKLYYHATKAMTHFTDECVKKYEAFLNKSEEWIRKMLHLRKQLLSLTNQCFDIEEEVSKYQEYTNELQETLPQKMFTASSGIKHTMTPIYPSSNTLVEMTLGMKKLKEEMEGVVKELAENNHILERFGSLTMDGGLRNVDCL
The experiment is described as above.

Amino acid sequences for entries named in this document (tags omitted). Residues count along the entry.
UniProt P03186, residues 1-325: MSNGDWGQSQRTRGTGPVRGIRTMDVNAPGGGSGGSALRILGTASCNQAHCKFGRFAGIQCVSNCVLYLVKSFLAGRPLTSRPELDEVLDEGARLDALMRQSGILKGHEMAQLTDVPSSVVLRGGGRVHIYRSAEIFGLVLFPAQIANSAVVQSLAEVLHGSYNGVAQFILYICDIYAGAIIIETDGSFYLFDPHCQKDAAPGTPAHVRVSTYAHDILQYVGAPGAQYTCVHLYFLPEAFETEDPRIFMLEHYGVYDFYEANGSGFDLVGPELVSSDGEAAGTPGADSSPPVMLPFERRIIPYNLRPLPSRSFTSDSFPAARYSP
UniProt Q86WV6: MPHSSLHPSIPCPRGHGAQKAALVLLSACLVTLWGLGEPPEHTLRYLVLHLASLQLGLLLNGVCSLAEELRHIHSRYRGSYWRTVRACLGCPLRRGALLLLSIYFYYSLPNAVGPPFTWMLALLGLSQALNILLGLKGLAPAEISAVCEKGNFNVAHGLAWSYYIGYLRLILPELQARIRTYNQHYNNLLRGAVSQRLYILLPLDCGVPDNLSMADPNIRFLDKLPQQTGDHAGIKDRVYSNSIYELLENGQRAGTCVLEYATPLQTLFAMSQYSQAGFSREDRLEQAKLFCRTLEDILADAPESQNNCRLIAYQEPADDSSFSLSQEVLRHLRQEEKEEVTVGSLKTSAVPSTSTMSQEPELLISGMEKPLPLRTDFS

These are yes or no findings as the source states them, for the method shown. In cells and extracts the contact can be indirect. Some entries that bind do so weakly or less than the wild type. For part of these data: Sequences can lack the tags named with a protein.

“Flag-tagged STING (from UniProt Q86WV6 1-379)”: the binding entry in experiment [1] is listed as “binds”.
For the substance “Myc-tagged BPLF1 325 (first 325 amino acids of EBV large tegument protein BPLF1) (from UniProt P03186 1-325) (domain or fragment)”, the binding entry in the experiment with Flag-tagged STING is listed as “binds”; in the experiment with Flag-tagged TBK1, “no binding”.
